The supplement of paper PMC10849652
Some of the results follow.

By UniProt entry, the sequences of proteins in these tests, tags left out. Where a name states a change or a piece, a line headed by the entry shows the natural chain unless it says otherwise.
UniProt Q9BTA9: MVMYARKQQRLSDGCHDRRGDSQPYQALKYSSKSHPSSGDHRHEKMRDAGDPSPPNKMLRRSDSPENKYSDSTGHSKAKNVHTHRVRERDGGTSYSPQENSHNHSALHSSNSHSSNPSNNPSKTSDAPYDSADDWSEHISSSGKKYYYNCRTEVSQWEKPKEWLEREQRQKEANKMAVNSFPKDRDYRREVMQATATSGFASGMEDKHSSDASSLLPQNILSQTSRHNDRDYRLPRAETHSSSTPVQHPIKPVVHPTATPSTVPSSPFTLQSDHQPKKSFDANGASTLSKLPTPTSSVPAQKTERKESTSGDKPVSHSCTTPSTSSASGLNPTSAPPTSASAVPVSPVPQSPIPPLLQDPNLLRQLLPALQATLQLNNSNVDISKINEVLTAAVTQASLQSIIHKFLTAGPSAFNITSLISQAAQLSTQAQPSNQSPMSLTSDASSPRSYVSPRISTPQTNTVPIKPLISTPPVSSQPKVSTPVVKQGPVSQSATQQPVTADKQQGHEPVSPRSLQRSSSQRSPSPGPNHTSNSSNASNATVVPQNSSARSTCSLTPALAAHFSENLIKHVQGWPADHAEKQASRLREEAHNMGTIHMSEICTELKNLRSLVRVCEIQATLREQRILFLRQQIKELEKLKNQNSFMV
UniProt Q9UK41: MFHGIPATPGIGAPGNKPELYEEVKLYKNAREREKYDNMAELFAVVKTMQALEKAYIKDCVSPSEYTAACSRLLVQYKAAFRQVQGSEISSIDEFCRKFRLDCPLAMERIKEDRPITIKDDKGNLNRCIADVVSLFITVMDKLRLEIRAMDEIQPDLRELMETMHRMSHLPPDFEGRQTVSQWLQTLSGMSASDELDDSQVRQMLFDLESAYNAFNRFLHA
UniProt Q9UEU0: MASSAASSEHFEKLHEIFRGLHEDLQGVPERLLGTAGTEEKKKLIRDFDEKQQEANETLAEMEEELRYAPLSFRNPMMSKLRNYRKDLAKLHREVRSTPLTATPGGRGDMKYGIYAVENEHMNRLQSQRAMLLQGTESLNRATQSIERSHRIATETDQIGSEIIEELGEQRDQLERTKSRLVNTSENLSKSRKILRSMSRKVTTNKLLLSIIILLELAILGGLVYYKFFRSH
UniProt O15213: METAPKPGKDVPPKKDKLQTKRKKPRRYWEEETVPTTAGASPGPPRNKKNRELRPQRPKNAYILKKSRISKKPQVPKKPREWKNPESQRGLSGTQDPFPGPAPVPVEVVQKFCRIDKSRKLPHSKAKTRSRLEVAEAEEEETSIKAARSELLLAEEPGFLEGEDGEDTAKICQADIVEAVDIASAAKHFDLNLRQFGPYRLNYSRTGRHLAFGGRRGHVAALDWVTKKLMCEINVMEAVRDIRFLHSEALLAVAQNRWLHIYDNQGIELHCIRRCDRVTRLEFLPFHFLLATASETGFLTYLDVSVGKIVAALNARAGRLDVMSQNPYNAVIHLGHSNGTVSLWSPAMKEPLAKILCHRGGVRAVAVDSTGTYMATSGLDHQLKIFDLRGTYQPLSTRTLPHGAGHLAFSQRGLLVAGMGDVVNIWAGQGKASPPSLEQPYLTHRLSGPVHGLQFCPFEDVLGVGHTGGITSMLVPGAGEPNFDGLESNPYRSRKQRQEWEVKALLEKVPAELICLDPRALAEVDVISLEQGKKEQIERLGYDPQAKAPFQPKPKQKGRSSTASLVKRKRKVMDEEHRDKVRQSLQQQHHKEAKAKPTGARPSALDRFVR
UniProt Q9H9H4: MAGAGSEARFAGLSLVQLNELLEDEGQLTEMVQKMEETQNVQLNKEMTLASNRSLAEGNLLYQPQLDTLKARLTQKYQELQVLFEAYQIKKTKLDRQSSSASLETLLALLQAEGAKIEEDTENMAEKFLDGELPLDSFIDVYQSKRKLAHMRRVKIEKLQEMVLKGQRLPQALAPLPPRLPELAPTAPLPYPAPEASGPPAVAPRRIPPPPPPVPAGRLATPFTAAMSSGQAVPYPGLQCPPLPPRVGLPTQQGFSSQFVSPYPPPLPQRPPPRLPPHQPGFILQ
UniProt Q9Y6I7: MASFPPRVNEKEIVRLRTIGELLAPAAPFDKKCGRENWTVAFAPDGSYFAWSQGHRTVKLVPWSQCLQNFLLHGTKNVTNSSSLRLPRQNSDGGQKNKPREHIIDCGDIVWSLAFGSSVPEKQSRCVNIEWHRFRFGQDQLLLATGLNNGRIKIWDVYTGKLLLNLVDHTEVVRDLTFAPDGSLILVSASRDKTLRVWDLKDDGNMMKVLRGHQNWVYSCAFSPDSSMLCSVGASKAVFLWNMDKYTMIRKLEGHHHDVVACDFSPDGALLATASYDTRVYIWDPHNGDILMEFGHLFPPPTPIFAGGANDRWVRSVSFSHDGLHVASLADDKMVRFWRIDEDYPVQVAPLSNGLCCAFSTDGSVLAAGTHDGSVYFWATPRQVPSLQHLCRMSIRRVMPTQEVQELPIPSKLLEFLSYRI
UniProt P42768: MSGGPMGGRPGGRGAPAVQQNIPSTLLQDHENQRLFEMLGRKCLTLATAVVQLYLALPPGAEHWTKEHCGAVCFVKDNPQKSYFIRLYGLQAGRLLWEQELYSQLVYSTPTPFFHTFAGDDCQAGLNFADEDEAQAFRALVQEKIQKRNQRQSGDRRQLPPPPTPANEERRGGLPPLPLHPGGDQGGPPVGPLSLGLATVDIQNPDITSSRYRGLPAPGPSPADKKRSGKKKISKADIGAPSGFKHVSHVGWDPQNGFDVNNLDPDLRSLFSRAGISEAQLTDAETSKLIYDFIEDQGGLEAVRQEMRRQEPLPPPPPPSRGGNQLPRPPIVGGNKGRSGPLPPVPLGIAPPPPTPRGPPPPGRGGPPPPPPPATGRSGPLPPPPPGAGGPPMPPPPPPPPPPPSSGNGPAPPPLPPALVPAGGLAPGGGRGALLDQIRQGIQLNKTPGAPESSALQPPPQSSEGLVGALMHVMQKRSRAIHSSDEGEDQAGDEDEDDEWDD
UniProt Q96P53: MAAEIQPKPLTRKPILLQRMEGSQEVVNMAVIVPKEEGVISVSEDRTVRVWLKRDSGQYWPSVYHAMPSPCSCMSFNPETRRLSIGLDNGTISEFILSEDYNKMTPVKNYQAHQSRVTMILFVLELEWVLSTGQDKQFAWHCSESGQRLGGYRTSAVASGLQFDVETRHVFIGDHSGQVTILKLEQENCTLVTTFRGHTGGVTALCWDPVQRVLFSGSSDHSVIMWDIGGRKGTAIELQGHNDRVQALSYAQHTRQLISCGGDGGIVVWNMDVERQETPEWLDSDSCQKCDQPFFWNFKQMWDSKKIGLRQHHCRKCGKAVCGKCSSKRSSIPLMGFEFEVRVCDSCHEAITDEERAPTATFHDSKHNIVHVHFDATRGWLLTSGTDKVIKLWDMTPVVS
UniProt Q9NZC7: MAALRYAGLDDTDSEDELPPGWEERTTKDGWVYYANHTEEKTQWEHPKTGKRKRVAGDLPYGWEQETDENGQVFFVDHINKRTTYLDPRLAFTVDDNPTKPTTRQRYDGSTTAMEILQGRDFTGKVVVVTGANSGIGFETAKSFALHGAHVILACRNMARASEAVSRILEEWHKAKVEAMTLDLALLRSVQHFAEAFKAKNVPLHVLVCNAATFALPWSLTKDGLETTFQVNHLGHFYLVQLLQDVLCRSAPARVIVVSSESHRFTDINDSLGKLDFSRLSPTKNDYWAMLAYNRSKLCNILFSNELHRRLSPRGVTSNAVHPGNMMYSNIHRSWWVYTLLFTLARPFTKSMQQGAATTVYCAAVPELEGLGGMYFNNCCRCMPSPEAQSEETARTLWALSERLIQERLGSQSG
UniProt Q969T9: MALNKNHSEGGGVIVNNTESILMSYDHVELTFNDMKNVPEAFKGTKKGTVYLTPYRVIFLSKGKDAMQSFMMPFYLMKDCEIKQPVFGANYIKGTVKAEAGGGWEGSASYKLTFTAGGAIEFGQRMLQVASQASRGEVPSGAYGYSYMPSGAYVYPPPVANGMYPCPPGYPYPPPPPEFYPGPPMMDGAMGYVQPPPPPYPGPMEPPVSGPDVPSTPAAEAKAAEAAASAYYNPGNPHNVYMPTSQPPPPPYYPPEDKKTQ
UniProt P51811: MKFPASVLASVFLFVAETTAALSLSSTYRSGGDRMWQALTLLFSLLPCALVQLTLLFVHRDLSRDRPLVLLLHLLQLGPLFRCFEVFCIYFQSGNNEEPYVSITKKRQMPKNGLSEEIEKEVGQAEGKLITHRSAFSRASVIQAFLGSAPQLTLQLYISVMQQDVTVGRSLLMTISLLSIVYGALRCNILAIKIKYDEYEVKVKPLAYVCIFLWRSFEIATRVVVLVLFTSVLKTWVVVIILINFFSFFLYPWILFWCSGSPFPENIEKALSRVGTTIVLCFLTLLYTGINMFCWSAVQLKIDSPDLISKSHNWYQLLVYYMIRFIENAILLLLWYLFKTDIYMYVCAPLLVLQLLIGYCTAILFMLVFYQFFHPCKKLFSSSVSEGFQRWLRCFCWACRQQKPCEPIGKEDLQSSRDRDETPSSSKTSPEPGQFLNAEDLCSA
UniProt Q9NP79: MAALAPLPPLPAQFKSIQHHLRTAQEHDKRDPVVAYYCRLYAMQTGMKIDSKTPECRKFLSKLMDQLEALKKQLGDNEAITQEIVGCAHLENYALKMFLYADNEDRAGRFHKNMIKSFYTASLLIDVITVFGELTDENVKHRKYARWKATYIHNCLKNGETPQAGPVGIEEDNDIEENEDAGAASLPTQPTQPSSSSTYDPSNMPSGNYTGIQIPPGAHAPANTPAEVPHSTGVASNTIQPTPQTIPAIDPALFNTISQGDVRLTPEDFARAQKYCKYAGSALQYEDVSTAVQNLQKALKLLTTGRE
UniProt Q8NEZ2: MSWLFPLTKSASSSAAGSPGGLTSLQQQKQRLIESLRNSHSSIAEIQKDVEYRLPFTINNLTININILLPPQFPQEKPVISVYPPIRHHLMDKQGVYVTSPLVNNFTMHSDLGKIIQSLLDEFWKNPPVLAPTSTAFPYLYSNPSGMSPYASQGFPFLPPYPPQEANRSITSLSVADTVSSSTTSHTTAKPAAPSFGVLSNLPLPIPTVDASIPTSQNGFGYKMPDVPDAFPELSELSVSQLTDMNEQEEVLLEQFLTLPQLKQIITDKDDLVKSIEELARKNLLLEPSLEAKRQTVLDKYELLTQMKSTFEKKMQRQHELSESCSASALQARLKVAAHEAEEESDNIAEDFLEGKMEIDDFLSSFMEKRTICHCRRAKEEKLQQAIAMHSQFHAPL
UniProt Q5MNZ9: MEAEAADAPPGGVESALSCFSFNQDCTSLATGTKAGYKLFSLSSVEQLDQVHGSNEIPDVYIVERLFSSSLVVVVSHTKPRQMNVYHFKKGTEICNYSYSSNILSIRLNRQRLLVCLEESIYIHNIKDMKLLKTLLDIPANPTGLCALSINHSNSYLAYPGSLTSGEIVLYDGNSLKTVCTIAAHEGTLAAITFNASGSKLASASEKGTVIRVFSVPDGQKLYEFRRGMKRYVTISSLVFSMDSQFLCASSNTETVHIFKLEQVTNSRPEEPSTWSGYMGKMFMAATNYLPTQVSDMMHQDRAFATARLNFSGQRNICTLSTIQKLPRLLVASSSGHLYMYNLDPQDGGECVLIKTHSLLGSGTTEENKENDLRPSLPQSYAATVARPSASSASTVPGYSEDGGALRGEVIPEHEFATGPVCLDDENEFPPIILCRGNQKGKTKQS
UniProt Q96HA8: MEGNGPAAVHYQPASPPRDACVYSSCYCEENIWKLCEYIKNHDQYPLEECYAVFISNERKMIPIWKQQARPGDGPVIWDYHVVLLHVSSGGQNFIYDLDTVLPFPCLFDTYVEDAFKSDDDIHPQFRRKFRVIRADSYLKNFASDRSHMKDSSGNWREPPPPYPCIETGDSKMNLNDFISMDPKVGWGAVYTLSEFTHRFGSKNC
UniProt Q8TF74: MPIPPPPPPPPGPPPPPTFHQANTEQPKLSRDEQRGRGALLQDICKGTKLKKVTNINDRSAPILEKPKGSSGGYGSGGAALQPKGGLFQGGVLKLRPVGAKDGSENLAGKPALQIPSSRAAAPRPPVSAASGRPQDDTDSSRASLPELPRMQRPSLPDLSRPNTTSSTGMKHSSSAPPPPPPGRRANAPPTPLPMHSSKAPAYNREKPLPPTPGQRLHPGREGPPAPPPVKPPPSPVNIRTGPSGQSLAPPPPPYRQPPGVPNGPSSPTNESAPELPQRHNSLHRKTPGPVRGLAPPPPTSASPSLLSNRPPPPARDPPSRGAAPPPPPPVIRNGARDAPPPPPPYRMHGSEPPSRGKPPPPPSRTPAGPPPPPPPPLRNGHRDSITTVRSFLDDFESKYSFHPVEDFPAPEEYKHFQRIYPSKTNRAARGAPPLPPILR
UniProt Q15906, whole entry, looked up: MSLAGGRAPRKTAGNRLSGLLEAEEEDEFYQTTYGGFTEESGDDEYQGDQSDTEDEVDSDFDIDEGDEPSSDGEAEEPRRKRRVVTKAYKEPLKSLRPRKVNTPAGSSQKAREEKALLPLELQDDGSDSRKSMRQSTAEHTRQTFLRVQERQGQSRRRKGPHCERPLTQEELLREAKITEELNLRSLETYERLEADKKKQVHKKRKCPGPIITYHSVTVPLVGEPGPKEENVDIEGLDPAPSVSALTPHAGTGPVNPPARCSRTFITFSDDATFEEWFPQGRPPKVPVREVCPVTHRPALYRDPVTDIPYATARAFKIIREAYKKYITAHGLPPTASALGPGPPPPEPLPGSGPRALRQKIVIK

How the values were obtained:
Assay in all cases: log2 fold change, soluble protein after heating vs DMSO (PISA); higher = thermal stabilisation; K562 lysate, 10 uM; active = over 0.2 and 3.5 SD of the protein, either way, in both replicates (recomputed)
[1] = compound: Cc1sc2c(c1C)C(c1ccc(Cl)cc1)=N[C@@H](CC(=O)OC(C)(C)C)c1nnc(C)n1-2
In short: (§1)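 Quantification was by TMTpro 16plex LC-MS/MS with equalised channel sums, applied to the supernatant after 21,000xg for 90 min. Samples were crude K562 extract at 1 mg/mL protein in PBS pH 7.4 with 1 mM MgCl2, treated with 10 μM compound for 30 min, heated for 3 min across 48°C-58°C, pooled and brought to 0.5% NP-40 at 4°C. Values are log-two fold changes in thermal stability relative to solvent controls, from duplicates.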

[2] = compound: C1=CC=C(C=C1)[C@H](COC2=CC3=C(C=C2)NC(=O)N3)NC(=O)C4=CC=CN(C4=O)CC5=CC(=C(C=C5)F)F
In short: as §1

[3] = compound: CC1=C(SC2=C1C(=N[C@H](C3=NN=C(N32)C)CC(=O)N)C4=CC=C(C=C4)Cl)C
In short: as §1

[4] = compound: CC1=C2C(=CC=C1)N=C(N(C2=O)C3=CC=CC=C3C)CN4C=NC5=C(N=CN=C54)N
In short: as §1

[5] = compound: c1ccc([C@@H]2C[C@H]2NC2CCNCC2)cc1
In short: as §1

Measured: log2 fold change

WAC isoform 5 (UniProt Q9BTA9)
inactive: [1] -0.232

VPS28 (UniProt Q9UK41)
inactive: [2] -0.087 | [3] -0.04 | [4] -0.013 | [1] 0.073 | [5] 0

VTI1B (UniProt Q9UEU0)
inactive: [2] 0.022 | [3] 0.089 | [1] -0.118 | [5] -0.035

WDR46 (UniProt O15213)
inactive: [2] -0.023 | [3] 0.016 | [4] -0.003 | [1] -0.038 | [5] -0.01

VPS37B (UniProt Q9H9H4)
inactive: [2] 0.028 | [3] 0.039 | [4] 0.01 | [1] -0.01 | [5] 0.064

WDR19 (UniProt Q8NEZ3)
inactive: [2] -0.023 | [3] -0.03 | [5] -0.467

WSB1 (UniProt Q9Y6I7)
inactive: [1] 0.036 | [5] -0.036

WDR33 (UniProt Q9C0J8)
inactive: [2] -0.09 | [3] 0.032 | [4] -0.032 | [1] 0.009 | [5] 0.001

WAC (UniProt Q9BTA9)
inactive: [2] -0.03 | [3] 0.056 | [4] -0.013 | [1] 0.041 | [5] 0.037

WAS (UniProt P42768)
inactive: [2] 0.003 | [3] -0.006 | [1] -0.095 | [5] 0.053

WDFY2 (UniProt Q96P53)
inactive: [1] 0.055

WWOX (UniProt Q9NZC7)
inactive: [4] -0.056 | [1] 0.274 | [5] 0.119

VPS35, A0A1W2PP10
inactive: [2] 0.347 | [3] -0.17 | [5] -0.243

WDR13, A0A087X091
inactive: [4] -0.055 | [5] 0.02

2 neighbouring entries from above:
WWOX (UniProt Q9NZC7)
inactive: [4] -0.056 | [1] 0.274 | [5] 0.119

VPS35, A0A1W2PP10
inactive: [2] 0.347 | [3] -0.17 | [5] -0.243

Next part.

WBP2 (UniProt Q969T9)
inactive: [2] 0.025 | [3] 0.009 | [4] 0.006 | [1] 0.005 | [5] 0.046

XK (UniProt P51811)
inactive: [2] 0.041 | [3] -0.041 | [1] -0.083 | [5] -0.023

VTA1 (UniProt Q9NP79)
inactive: [2] -0.036 | [3] 0.02 | [4] 0.002 | [1] 0.081 | [5] 0.04

VPS18 (UniProt Q9P253)
inactive: [2] -0.014 | [3] 0.013 | [4] 0.032 | [1] 0.067 | [5] 0.012

VPS37A (UniProt Q8NEZ2)
inactive: [2] -0.066 | [3] 0.072 | [4] 0 | [1] 0.017 | [5] 0.089

VPS29 (UniProt Q9UBQ0)
inactive: [4] -0.01 | [1] -0.118

WIPI1 (UniProt Q5MNZ9)
inactive: [2] 0.094 | [3] 0.023 | [1] 0.035 | [5] -0.031

WDYHV1 (UniProt Q96HA8)
inactive: [4] 0.159 | [1] 0.036

WIPF2 (UniProt Q8TF74)
inactive: [2] 0.037 | [3] -0.016 | [4] 0.015 | [1] -0.011 | [5] -0.054

VIRMA (UniProt Q69YN4)
inactive: [2] -0.055 | [3] 0.02 | [4] 0.015 | [1] -0.025 | [5] 0.005

VPS72 (UniProt Q15906)
inactive: [4] 0.027 | [1] -0.015 | [5] -0.035
